# No constants are given. Whether binding was seen depends on the method and setting. Binding seen in cells or lysates may run through a third protein. Some entries that bind do so weakly or less than the wild type.
# By UniProt entry, the sequences of proteins in these tests, tags left out. Residues count along the entry.
# UniProt Q99623: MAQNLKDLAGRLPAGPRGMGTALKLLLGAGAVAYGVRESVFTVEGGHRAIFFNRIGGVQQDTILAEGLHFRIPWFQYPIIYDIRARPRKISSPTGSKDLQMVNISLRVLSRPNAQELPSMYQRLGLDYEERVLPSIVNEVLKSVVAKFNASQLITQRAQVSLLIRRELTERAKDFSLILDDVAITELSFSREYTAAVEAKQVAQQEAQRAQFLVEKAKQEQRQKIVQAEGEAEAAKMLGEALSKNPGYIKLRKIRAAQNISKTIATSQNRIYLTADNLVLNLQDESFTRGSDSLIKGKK
# UniProt P28331, residues 24-727: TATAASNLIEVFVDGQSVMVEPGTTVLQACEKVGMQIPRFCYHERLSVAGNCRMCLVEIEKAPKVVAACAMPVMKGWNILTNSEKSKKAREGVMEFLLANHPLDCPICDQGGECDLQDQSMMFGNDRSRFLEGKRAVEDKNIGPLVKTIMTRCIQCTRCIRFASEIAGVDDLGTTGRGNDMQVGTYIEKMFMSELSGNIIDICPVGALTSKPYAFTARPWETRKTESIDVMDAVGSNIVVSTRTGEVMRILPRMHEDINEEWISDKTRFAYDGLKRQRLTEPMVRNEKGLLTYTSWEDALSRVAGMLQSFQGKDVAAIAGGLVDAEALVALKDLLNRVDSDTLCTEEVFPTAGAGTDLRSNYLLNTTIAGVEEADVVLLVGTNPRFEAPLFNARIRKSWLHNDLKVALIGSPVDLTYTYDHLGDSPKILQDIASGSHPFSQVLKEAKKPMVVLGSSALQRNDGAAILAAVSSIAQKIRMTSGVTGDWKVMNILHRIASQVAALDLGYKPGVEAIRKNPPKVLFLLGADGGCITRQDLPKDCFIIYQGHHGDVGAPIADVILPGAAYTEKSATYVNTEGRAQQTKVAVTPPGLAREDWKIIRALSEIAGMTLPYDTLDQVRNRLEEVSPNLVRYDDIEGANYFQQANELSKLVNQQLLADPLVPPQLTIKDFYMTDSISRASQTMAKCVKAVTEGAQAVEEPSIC
# How the values were obtained:
# Flag-PHB2 = Flag-PHB2 (UniProt Q99623); test: co-IP; NCM460 cells co-transfected with Flag-PHB2 and HA-NDUFS1 plasmids; whole-cell lysates, anti-Flag and anti-HA immunoprecipitation, western blot
# GST-PHB2 = GST-PHB2 (UniProt Q99623); test: pull-down; purified GST-PHB2 incubated with HCT116 and HT-29 cell lysates at 4 °C for 4 h, GST-Tag Purification Resin, elution, western blot; only the target purified
# [1] = target: Prohibitin 2 (PHB2) (human (endogenous in HCT116 and HT-29)) (UniProt Q99623); test: co-IP; endogenous proteins; HCT116 and HT-29 whole-cell lysates (1 mg total protein), target antibody (3 ug) at 4 °C overnight, protein A/G agarose beads 4 h at 4 °C, western blot; IgG as negative control; also cells with control or PHB2 shRNA and with control siRNA
binding (Flag-PHB2),binding (GST-PHB2),binding [1],Substance
binds,,,HA-NDUFS1 (from UniProt P28331 24-727)
,binds,binds,NADH:ubiquinone oxidoreductase core subunit S1 (NDUFS1) (from UniProt P28331 24-727)

# — PMC9852476
